{"sequences": {"note": "By UniProt entry, the sequences of proteins in these tests, tags left out. Where a name states a change or a piece, a line headed by the entry shows the natural chain unless it says otherwise.", "UniProt Q9UNA4": "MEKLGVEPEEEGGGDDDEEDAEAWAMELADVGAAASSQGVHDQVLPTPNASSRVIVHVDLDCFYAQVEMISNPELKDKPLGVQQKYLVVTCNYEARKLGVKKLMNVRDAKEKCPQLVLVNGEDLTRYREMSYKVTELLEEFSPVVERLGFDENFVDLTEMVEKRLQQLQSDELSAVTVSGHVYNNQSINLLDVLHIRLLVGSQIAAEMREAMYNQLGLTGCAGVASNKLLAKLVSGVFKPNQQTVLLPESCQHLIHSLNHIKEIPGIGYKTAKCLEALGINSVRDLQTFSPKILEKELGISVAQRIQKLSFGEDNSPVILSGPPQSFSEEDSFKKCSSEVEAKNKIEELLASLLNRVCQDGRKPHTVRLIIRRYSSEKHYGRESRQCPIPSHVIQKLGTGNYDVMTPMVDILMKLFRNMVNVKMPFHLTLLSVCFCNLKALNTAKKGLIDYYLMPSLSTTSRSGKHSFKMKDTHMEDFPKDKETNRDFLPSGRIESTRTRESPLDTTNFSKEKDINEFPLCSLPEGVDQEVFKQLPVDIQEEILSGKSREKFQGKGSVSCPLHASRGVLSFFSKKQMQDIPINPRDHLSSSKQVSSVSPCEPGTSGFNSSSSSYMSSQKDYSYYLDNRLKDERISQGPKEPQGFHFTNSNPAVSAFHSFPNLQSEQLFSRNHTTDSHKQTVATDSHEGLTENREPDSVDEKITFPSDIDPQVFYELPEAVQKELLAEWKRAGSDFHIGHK"}, "source": "PubChem BioAssay AID588590", "about": "(National Center for Advancing Translational Sciences (NCATS), 2011)", "note": "Among all 390,000 compounds or so, about 4,000 (1%) were called active. This list was built around the results that the source calls inconclusive (neither active nor inactive); the mix of calls is not that of the screen. Calls come from the whole dose curve; as a rule, active = well fitted inhibition curve with a large enough effect; inconclusive = small, poorly fitted or top-dose-only effect, or another doubt; inactive = no such curve, though single readings can be large or run the other way. Potencies of inconclusive entries are doubtful fits and often do not repeat. Potency is the fitted concentration of half-maximal effect.", "data": [{"target": "DNA polymerase iota (Homo sapiens) (UniProt Q9UNA4)", "assay": "qHTS for Inhibitors of Polymerase Iota", "conditions": "Pol iota fluorescent replication assay, 10 min; series mostly up to 115 µM", "procedure,_shortened": "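Pol iota at 10 nM preincubated 15 min with compounds at room temperature; reaction started with fluorescent substrate, 50 nM final. Fluorescence read kinetically at 0 and 10 min; buffer-only wells as negative control.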", "values": [{"smiles": "CCOC(=O)c1sc(NC(=O)c2cccs2)nc1C", "Potency": "inactive"}, {"smiles": "O=C(NC1C(=O)NNC1c1ccccc1)c1ccc(F)cc1", "note": "(stereo not drawn)", "Potency": "inconclusive: 0.708 µM [inhibitor, full curve, poor fit]"}, {"smiles": "O=C(O)[C@@H]1[C@H]2C[C@H]3c4[nH]c5ccccc5c4CCN3C[C@@H]2CC[C@@H]1O", "Potency": "inconclusive: 15.8 µM [inhibitor, full curve, poor fit]"}, {"smiles": "C[n+]1ccc(/C=C/c2ccc(Br)cc2)cc1", "Potency": "inconclusive: 89.1 µM [inhibitor, single point]"}, {"smiles": "O=S(=O)(c1ccc(Oc2ccc(-c3nnco3)cc2)nc1)N1CCC(Cc2ccccc2)CC1", "Potency": "inactive"}, {"smiles": "COc1ccc2c(c1)cc(C(=O)N[C@@H](Cc1ccccc1)C(=O)O)n2C", "Potency": "inconclusive: 70.8 µM [inhibitor, single point]"}, {"smiles": "O=C(/C=C/c1ccco1)N(c1ccccn1)c1ccccn1", "Potency": "inconclusive: 2.82 µM [inhibitor, full curve, poor fit]"}, {"smiles": "C=C1C=C(C)n2ncc(C(=O)Nc3ccc(C)cn3)c2N1", "Potency": "inconclusive: 11.2 µM [inhibitor, partial curve, poor fit]"}, {"smiles": "COC(=O)C(C(=O)OC)c1ccc(-n2cccc2)cc1", "Potency": "inconclusive: 89.1 µM [inhibitor, single point]"}, {"smiles": "COc1ccc2c(-c3ccc(S(N)(=O)=O)cc3)c(-c3ccc(S(C)(=O)=O)cc3)sc2c1", "Potency": "inactive"}, {"smiles": "COc1cccc(C(=O)CN2CCN(S(=O)(=O)c3cccc([N+](=O)[O-])c3)CC2)c1", "Potency": "inconclusive: 39.8 µM [inhibitor, single point]"}, {"smiles": "COc1ccc(CNC(=O)COC(=O)c2cccnc2Nc2cccc(C(F)(F)F)c2)cc1", "Potency": "inactive"}, {"smiles": "C[C@@H]1COC(=O)[C@@H](CC(=O)OC(C)(C)C)C/C=C\\C[C@H](CC(=O)NCCO)C(=O)N1", "Potency": "inactive"}, {"smiles": "CCNC(=S)N1CCN(c2nc(-c3cccc(OC)c3)cs2)CC1", "Potency": "inconclusive: 39.8 µM [inhibitor, partial curve, poor fit]"}, {"smiles": "Cc1cc(C(=O)C(=O)Nc2nnc(C(C)C)s2)c(C)n1-c1ccccc1", "Potency": "inactive"}, {"smiles": "CC(=O)Oc1ccc(C(=O)c2ccccc2)c(OC(C)=O)c1", "Potency": "inconclusive: 56.2 µM [inhibitor, partial curve, poor fit]"}, {"smiles": "CCC(C)Cn1c(O)cc2nn(-c3nc4ccccc4s3)c(=O)c-2c1C", "note": "(stereo not drawn)", "Potency": "active: 12.6 µM"}, {"smiles": "CN(C(=O)CSc1nc(-c2ccc(C(C)(C)C)cc2)c(C#N)c(=O)[nH]1)C1CCCCC1", "Potency": "inconclusive: 50.1 µM [inhibitor, partial curve, poor fit]"}, {"smiles": "COC(=O)N/N=C/c1cn(CC(C)COc2ccccc2)c2ccccc12", "note": "(stereo not drawn)", "Potency": "inactive"}, {"smiles": "CCOC(=O)C1CCN(C(=O)CSc2n[nH]c(-c3ccc(F)cc3)n2)CC1", "Potency": "inconclusive: 100 µM [inhibitor, single point]"}, {"smiles": "C#CCN1C=CC(=O)[C@@H](OC(=O)Nc2ccc(C)cc2)[C@H]1c1ccccc1Br", "Potency": "inconclusive: 39.8 µM [inhibitor, single point]"}, {"smiles": "O=C1NC[C@H](Cc2ccccc2)N(CC2CCN(CCc3ccc(-c4ccccc4)cc3)CC2)C1=O", "Potency": "inactive"}, {"smiles": "C=CCOC(=O)C1=C[C@@H](c2csc3ccccc23)[C@H](CCCO)[C@@H](OCC)O1", "Potency": "inactive"}, {"smiles": "Cn1cc(C(=O)Nc2ccc(C#N)cc2)c2ccccc2c1=O", "Potency": "inconclusive: 89.1 µM [inhibitor, partial curve, poor fit]"}, {"smiles": "Cn1cnc2c(=O)oc3ccc(S(=O)(=O)N4CCN(c5ccccc5F)CC4)cc3c21", "Potency": "inconclusive: 100 µM [inhibitor, single point]"}, {"smiles": "COc1ccccc1N1CCN(C(=O)C2CCC(CNS(=O)(=O)c3ccc(NC(C)=O)cc3)CC2)CC1", "note": "(stereo not drawn)", "Potency": "inactive"}, {"smiles": "Cc1ccc(C(=O)c2c3ccccc3[n+]([O-])n2CCC(=O)O)cc1", "Potency": "inconclusive: 39.8 µM [inhibitor, single point]"}, {"smiles": "CCCCOP(=O)(OCCCC)C1(NS(=O)(=O)c2ccccc2)C=CC(=O)c2ccccc21", "note": "(stereo not drawn)", "Potency": "inconclusive: 0.562 µM [inhibitor, full curve, poor fit]"}, {"smiles": "COc1ccccc1N1CCN(C(=O)c2ccc3nc(-c4ccco4)c(-c4ccco4)nc3c2)CC1", "Potency": "inconclusive: 11.2 µM [inhibitor, partial curve, poor fit]"}, {"smiles": "O=C(CSc1nc2c([nH]c3ccccc32)c(=O)n1-c1ccc(F)cc1)NCc1ccc(F)cc1", "Potency": "inconclusive: 89.1 µM [inhibitor, partial curve, poor fit]"}, {"smiles": "COc1ccc(-n2cccc2/C=C/[N+](=O)[O-])cc1", "Potency": "inconclusive: 28.2 µM [inhibitor, single point]"}, {"smiles": "C#CC(=O)N(c1cc(OC)ccc1OC)C(C(=O)NC1CCCC1)c1cccs1", "note": "(stereo not drawn)", "Potency": "inconclusive: 39.8 µM [inhibitor, single point]"}, {"smiles": "CCOC(=O)c1ccc(NC2=CC(=O)C(=O)c3ccccc32)cc1", "Potency": "inconclusive: 3.55 µM [inhibitor, full curve, poor fit]"}, {"smiles": "CCCCCCCCCCCCCCCCCCN(CCCCCCCCCCCCCCCCCC)c1ccc(C=O)cc1", "Potency": "inactive"}, {"smiles": "Cc1ccc(NC(=O)C2CCN(S(=O)(=O)c3ccc4c(c3)CCCN4C(=O)C3CCC3)CC2)cc1", "Potency": "inactive"}, {"smiles": "CC(/C=C1\\SC(=O)N(CCCC(=O)O)C1=O)=C\\c1ccccc1", "Potency": "inactive"}, {"smiles": "O=C(CCS(=O)(=O)c1nc(-c2cccs2)cc(C(F)(F)F)n1)Nc1ccc(F)c(Cl)c1", "Potency": "inconclusive: 20 µM [inhibitor, partial curve, poor fit]"}, {"smiles": "O=C1C(=NO)CCc2ccccc21", "Potency": "inconclusive: 56.2 µM [inhibitor, partial curve, poor fit]"}, {"smiles": "Cc1oc(-c2ccc(C(=O)NCc3ccccc3F)cc2)nc1COc1ccccc1", "Potency": "inconclusive: 89.1 µM [inhibitor, single point]"}, {"smiles": "O=C(O)CCc1ccc(-c2ccc(Br)cc2)n1-c1cccc(O)c1", "Potency": "inconclusive: 0.794 µM [inhibitor, full curve, poor fit]"}, {"smiles": "Cc1noc(C)c1C(=O)NC1CCCc2ccccc21", "note": "(stereo not drawn)", "Potency": "inconclusive: 100 µM [inhibitor, partial curve, poor fit]"}, {"smiles": "S=c1[nH]nc(-c2ccncc2)n1/N=C/C(Cl)=C\\c1ccccc1", "Potency": "inconclusive: 17.8 µM [inhibitor, full curve, poor fit]"}, {"smiles": "COc1cccc(C2c3c(-c4ccccc4)n[nH]c3C(=O)N2c2ccc(C(=O)O)cc2)c1", "note": "(stereo not drawn)", "Potency": "inconclusive: 56.2 µM [inhibitor, single point]"}, {"smiles": "COc1ccc(NC(=O)CSc2nc(-c3ccccc3)[nH]c2-c2ccccc2)cc1OC", "Potency": "inconclusive: 89.1 µM [inhibitor, single point]"}, {"smiles": "CCOC(=O)C(=O)NCc1ccc(/C=C2/N=C(C)C(C(=O)OCC)=C2O)o1", "Potency": "inconclusive: 11.2 µM [inhibitor, partial curve, poor fit]"}, {"smiles": "O=C(COC(=O)c1cc(S(=O)(=O)N2CCCCC2)ccc1N1CCOCC1)c1ccc(Cl)cc1", "Potency": "inconclusive: 89.1 µM [inhibitor, single point]"}, {"smiles": "CN(Cc1ccsc1)C(=O)CCc1nnc(CCCc2ccccc2)o1", "Potency": "inactive"}, {"smiles": "COc1ccc(OC)c(NC(=O)CN(c2ccc(OC)c(Cl)c2)S(C)(=O)=O)c1", "Potency": "inactive"}, {"smiles": "O=C(COc1ccc([N+](=O)[O-])cc1)Nc1nnc(-c2cccnc2)s1", "Potency": "active: 17.8 µM"}, {"smiles": "Cc1c(S(=O)(=O)N2CCN(C(=O)c3ccco3)CC2)c(=O)n(C)c(=O)n1C", "Potency": "inconclusive: 3.16 µM [inhibitor, single point]"}, {"smiles": "O=C1CC(c2cccc(Cl)c2Cl)c2cc3c(cc2N1)OCCO3", "note": "(stereo not drawn)", "Potency": "inconclusive: 89.1 µM [inhibitor, single point]"}, {"smiles": "Cc1cc(C(=O)COC(=O)Cc2n[nH]c(=O)c3ccccc23)c(C)n1-c1ccc2c(c1)OCCO2", "Potency": "inconclusive: 112 µM [inhibitor, partial curve, poor fit]"}, {"smiles": "C#CCOCCOCCOCCNc1nc(N2CCN(C(=O)CCCCCCCCCCNC(=O)[C@H]([C@@H](C)CC)n3cc(CCCCCN)nn3)CC2)nc(N2CCN(C(=O)CCCCCCCCCCNC(=O)[C@H](CO)n3cc(CCCCCN)nn3)CC2)n1", "Potency": "inconclusive: 31.6 µM [inhibitor, single point]"}, {"smiles": "Cc1ccc(CCNC(=O)c2ccc(CS(=O)(=O)Cc3ccc(F)cc3)o2)cc1", "Potency": "inconclusive: 56.2 µM [inhibitor, partial curve, poor fit]"}, {"smiles": "Cc1cccnc1NC(=S)Nc1ccc(Br)cc1Cl", "Potency": "inactive"}, {"smiles": "O=C(Nc1ccnn1C1CCN(C(=O)CCc2ccc(F)cc2)CC1)C1CCOC1", "note": "(stereo not drawn)", "Potency": "inactive"}, {"smiles": "C#CCCOC(=O)N1C2=NC(C(=O)OC)=C(C(=O)OC)[C@@H]3N(Cc4ccccc4)c4ccccc4[C@]23C[C@H]1C(=O)OC", "Potency": "inconclusive: 39.8 µM [inhibitor, single point]"}, {"smiles": "Cc1ccc(CN(Cc2cccn2-c2nnc(N3CCCC3=O)s2)C(=O)Nc2ccc(F)cc2)cc1", "Potency": "inactive"}, {"smiles": "COc1cc(/C=C2/SC(=S)N(Cc3ccccc3)C2=O)cc(OC)c1O", "Potency": "active: 44.7 µM"}, {"smiles": "O=C(NC(=S)Nc1cccc([N+](=O)[O-])c1)c1ccco1", "Potency": "inactive"}, {"smiles": "Cc1cccn2c(=O)c(/C=C(\\C#N)C(=O)NC3CCS(=O)(=O)C3)c(Oc3ccccc3Cl)nc12", "note": "(stereo not drawn)", "Potency": "inconclusive: 28.2 µM [inhibitor, single point]"}, {"smiles": "O=C(COC(=O)CCCNC(=O)c1ccc(Cl)cc1)NCc1ccccc1Cl", "Potency": "inactive"}, {"smiles": "COc1ccc2[nH]c(=O)c(CN(Cc3ccco3)C(c3nnnn3Cc3ccccc3)C(C)C)cc2c1", "note": "(stereo not drawn)", "Potency": "inconclusive: 39.8 µM [inhibitor, single point]"}]}]}
